# Reference: publication PMC12154654
# The chains behind the UniProt entries cited, without tags or fusion partners.
# UniProt P42858: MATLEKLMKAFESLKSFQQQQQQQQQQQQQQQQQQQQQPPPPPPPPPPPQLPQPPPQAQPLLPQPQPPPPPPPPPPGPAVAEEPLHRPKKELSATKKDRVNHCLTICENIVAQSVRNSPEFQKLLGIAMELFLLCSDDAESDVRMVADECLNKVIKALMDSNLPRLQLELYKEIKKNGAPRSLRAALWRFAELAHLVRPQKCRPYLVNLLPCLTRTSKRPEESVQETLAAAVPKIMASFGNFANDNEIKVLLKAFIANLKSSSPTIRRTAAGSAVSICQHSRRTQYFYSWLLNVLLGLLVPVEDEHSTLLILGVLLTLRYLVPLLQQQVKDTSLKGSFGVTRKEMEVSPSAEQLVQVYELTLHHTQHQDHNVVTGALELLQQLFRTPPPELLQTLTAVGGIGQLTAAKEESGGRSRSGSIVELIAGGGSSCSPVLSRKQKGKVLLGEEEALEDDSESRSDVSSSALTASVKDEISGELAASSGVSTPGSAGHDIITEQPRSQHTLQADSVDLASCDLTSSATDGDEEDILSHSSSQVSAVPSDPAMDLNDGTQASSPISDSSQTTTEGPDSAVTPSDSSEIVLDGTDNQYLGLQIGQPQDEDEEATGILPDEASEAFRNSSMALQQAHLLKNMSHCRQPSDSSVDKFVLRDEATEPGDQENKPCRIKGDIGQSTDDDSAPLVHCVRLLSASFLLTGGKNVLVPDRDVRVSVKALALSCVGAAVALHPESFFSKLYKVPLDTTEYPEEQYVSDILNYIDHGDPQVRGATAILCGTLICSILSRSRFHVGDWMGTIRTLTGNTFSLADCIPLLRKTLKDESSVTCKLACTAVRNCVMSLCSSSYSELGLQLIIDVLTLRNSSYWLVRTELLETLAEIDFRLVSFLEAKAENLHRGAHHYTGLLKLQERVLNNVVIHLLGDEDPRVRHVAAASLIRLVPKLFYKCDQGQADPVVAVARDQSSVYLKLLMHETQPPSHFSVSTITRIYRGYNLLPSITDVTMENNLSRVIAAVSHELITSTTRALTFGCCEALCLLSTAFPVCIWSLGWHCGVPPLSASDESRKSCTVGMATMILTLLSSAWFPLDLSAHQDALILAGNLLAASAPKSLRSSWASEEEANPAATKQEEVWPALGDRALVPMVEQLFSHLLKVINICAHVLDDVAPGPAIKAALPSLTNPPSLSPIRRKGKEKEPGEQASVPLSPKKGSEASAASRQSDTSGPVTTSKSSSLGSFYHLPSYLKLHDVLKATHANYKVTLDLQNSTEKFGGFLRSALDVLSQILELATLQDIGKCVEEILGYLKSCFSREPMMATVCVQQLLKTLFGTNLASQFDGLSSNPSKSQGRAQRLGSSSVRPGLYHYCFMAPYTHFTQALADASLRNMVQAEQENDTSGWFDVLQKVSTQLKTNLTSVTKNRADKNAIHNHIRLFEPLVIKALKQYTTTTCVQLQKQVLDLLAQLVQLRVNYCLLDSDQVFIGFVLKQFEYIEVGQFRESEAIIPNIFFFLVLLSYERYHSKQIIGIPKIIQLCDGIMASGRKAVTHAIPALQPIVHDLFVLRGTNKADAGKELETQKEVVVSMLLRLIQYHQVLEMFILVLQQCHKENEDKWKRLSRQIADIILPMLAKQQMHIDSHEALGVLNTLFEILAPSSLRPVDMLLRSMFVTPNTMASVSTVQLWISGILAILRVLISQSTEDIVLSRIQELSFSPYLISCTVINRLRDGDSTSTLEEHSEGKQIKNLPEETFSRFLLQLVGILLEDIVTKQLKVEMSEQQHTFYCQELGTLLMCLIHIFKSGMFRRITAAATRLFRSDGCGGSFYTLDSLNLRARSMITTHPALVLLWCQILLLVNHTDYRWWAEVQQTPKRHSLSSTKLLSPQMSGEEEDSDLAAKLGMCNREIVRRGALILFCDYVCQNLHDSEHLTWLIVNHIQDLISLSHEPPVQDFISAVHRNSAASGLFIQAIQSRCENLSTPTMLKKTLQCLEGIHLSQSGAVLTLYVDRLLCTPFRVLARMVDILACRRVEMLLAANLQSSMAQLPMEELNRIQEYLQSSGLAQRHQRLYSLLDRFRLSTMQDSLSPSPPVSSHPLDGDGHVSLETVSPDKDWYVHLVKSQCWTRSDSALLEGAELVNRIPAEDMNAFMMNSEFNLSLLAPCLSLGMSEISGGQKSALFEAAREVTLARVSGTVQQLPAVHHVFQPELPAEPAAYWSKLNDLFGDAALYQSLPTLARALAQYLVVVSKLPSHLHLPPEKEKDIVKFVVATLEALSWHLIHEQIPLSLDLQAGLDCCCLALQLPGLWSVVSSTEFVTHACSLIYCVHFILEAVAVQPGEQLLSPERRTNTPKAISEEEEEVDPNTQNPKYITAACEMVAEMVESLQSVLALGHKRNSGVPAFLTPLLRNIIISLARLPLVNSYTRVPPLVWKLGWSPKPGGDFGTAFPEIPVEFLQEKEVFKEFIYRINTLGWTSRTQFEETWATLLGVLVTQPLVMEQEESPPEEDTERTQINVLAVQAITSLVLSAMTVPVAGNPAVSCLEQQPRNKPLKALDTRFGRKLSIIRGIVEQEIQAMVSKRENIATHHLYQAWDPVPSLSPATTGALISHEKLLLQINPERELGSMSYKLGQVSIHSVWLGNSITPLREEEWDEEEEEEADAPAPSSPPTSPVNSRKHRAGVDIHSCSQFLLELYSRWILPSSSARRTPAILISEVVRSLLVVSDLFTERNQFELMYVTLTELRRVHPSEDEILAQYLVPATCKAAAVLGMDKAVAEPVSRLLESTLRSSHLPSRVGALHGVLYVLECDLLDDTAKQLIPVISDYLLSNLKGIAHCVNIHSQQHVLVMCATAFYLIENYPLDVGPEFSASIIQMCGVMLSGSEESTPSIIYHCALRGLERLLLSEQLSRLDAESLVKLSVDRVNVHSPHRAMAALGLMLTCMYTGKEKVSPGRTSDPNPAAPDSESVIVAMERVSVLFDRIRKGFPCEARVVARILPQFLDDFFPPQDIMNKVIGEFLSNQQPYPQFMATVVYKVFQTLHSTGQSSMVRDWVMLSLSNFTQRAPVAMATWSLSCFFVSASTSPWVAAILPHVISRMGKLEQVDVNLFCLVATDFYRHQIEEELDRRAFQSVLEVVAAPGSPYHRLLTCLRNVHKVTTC
# UniProt P15927: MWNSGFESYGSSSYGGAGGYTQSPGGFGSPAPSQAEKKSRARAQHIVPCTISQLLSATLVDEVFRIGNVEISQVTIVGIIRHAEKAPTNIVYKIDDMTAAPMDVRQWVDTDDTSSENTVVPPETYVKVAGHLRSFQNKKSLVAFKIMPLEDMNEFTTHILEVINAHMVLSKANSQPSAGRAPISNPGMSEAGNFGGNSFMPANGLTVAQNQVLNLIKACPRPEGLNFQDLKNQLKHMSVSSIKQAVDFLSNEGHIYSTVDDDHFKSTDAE
# UniProt P42859: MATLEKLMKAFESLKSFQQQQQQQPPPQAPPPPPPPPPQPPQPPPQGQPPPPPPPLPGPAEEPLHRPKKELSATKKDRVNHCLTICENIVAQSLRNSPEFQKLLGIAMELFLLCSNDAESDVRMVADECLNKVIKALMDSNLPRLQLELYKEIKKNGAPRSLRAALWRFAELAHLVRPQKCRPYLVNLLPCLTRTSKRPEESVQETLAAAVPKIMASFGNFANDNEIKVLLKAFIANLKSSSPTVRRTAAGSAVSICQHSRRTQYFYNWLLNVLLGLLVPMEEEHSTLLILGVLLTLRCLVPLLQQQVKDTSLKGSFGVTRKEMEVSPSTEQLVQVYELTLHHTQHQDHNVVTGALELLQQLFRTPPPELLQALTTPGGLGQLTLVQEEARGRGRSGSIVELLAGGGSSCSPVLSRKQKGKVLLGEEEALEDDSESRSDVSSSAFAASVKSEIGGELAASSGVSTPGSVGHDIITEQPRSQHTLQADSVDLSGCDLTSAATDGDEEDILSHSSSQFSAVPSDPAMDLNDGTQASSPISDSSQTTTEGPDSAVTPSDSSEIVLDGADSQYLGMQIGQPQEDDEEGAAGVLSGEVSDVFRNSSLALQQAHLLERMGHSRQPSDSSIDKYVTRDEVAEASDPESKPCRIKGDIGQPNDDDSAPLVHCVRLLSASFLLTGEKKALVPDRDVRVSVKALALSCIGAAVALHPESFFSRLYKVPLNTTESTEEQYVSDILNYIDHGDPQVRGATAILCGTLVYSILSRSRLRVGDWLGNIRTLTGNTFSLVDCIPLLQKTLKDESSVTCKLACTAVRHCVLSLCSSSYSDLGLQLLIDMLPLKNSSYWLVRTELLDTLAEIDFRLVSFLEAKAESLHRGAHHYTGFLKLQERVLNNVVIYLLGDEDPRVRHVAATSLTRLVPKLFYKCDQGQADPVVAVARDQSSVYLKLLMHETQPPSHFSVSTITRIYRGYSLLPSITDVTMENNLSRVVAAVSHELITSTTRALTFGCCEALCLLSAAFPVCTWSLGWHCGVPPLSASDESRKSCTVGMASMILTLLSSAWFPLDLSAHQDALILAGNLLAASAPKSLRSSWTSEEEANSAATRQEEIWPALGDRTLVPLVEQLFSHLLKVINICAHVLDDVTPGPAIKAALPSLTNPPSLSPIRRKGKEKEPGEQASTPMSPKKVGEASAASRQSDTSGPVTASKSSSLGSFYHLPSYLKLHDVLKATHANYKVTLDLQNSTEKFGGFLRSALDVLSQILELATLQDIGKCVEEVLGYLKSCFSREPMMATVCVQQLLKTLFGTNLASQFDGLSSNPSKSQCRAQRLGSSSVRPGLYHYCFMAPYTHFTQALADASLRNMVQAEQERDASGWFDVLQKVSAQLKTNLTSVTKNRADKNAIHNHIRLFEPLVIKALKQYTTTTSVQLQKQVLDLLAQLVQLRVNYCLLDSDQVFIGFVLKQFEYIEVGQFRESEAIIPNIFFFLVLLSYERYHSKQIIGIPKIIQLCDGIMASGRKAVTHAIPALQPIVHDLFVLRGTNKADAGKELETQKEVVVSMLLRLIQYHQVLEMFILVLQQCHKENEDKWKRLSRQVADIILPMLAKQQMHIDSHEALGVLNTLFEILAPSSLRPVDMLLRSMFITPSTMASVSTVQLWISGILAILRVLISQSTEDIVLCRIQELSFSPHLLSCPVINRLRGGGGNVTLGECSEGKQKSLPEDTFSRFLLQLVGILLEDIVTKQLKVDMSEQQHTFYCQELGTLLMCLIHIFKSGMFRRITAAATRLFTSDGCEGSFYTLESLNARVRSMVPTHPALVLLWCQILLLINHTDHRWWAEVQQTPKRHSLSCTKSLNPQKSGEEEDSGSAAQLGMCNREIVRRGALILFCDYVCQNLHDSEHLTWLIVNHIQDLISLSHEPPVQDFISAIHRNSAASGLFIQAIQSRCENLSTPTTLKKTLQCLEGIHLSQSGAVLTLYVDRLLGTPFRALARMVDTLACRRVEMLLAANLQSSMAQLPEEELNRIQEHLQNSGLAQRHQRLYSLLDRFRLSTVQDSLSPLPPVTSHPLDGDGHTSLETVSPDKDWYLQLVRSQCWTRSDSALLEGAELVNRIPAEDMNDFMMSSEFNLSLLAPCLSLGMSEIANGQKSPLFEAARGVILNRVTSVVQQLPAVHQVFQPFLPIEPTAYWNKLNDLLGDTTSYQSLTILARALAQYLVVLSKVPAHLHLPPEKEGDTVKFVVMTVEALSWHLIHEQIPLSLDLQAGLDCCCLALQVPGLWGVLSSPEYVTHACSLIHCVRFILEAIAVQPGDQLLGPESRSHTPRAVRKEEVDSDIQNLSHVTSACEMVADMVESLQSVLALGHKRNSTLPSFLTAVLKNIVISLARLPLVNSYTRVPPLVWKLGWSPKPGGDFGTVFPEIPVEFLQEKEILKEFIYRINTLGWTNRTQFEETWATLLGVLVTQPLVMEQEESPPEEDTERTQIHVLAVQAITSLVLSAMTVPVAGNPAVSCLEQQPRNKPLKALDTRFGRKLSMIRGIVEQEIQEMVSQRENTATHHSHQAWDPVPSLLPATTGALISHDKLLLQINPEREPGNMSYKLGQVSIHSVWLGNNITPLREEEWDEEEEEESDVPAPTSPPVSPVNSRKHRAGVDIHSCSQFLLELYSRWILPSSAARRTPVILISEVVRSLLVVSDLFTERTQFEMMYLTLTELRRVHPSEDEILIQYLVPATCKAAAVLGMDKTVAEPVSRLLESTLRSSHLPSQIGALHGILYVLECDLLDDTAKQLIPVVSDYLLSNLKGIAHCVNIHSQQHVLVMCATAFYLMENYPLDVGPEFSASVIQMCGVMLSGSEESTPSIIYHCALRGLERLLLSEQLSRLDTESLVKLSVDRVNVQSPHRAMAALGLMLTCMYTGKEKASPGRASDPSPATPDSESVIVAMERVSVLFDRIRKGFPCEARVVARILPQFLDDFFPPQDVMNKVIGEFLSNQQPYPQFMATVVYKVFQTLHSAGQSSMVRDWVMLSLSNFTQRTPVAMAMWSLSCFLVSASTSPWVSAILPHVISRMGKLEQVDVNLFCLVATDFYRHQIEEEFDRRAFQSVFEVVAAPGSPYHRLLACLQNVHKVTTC
# No constants are given. Whether binding was seen depends on the method and setting. Binding seen in cells or lysates may run through a third protein. These calls come from enrichment with a bait or labelling near it, and not all partners need be listed.
# Biological target: huntingtin (htt), endogenous in NIH393T cells (human (endogenous in NIH393T cells, which the paper calls human)) (UniProt P42858)
# Assay: affinity purification with mass spectrometry; NIH393T cell pellets, untransfected or overexpressing htt (26Q) or mhtt (51Q), lysed in IP Lysis buffer; anti-Htt antibody mix (MAB2166, MAB2168, MAB2170) on Protein G Dynabeads; washed with 50mM TEAB; trypsin digest off the beads; DIA LC-MS/MS
row,binding,Substance
1,binds,"Ku80, endogenous in NIH393T cells (from UniProt P13010 1-732)"
2,binds,"RPA1, endogenous in NIH393T cells (from UniProt P27694 1-616)"
3,binds,"Ku70, endogenous in NIH393T cells (from UniProt P12956 1-609)"
4,binds,"RPA2, endogenous in NIH393T cells (from UniProt P15927 1-270)"

# Biological target: normal huntingtin (htt), endogenous in striatum of WT C57BL/6J mice (mouse (endogenous in striatum of C57BL/6J mice)) (UniProt P42859)
# Assay: affinity purification with mass spectrometry; striatal tissue of WT and HdhQ(150/150) mice lysed in IP Lysis buffer; anti-Htt antibody mix (MAB2166, MAB2168, MAB2170) on Protein G Dynabeads; washed with 50mM TEAB; trypsin digest off the beads; DIA LC-MS/MS
row,binding,Substance
1,binds,"RPA170, mouse striatum (from UniProt Q8VEE4 1-623)"
2,binds,"Ku80 (X-ray repair cross-complementing 5), mouse striatum (from UniProt P27641 1-732)"
3,binds,"RPA32, mouse striatum (from UniProt Q62193 1-270)"
4,binds,"Ku70 (X-ray repair cross-complementing 6), mouse striatum (from UniProt P23475 1-608)"
5,binds,"RPA14, mouse striatum (from UniProt Q9CQ71 1-121)"
